Values quoted from earlier work in US20030185888A1, “Volume efficient controlled release dosage form” (priority 2002, published 2003).

Conditions: in vivo

For `COC(=O)C1=C(C)NC(C)=C(C(=O)OC)C1c1ccccc1[N+](=O)[O-]` [Nifedipine, nifedipine], the biological half-life is given as “about 2 hours”.
